From publication PMC7819943, “Rice protein-binding microarrays: a tool to detect cis-acting elements near promoter regions in rice”
The list shows a part of the results.

Each sequence was assayed against T1, OsSMF1 (Oryza sativa, UniProt Q6ZLB0 1-436) (assay: protein-binding microarray (RPBM); PBS, 2% BSA, 51.3 ng/ul salmon testes DNA, 50 uM zinc acetate, 200 nM TF, 25 C, 1 h; high values mean tight binding). Conditions: protein: recombinant; tags: N-terminal polyhistidine and DsRed monomer fusion (pET32a); chain copies: 2; label: CyDye5-dUTP incorporated in the synthesized complementary strand; 3' TTTTT single-stranded linker to array surface; dsDNA, one strand shown.
T1 sequence: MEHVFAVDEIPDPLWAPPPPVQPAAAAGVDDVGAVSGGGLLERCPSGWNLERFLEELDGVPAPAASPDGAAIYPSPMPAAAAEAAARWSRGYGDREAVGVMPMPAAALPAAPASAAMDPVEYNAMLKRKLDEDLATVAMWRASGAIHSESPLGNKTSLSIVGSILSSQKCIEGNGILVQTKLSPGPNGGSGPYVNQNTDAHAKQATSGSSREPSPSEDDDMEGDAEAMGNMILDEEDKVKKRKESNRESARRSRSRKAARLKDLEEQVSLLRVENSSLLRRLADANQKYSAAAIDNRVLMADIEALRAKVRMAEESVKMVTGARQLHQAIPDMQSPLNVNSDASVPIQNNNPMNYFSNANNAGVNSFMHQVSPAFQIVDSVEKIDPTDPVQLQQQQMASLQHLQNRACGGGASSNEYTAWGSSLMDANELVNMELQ
Method in brief: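 Binding signal here means per-feature fluorescence intensity in arbitrary units. The values were read on an Axon 4000B scanner after a custom Agilent array, double-stranded by primer extension with Cy5-dUTP, was incubated with 200 nM protein at 25 °C for 1 h in PBS with 2% BSA, salmon testes DNA and 50 µM zinc acetate, then washed. The proteins were transcription factors with an N-terminal polyhistidine tag and DsRed, expressed in E. coli BL21-CodonPlus and purified on Ni–NTA.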
“CCTCAAACCCGAGGCCGAAGCTGACGCGTGCCGTGGTGACCGGAGTCACCTAGTGCAG” was tested, and the binding signal was 4650 fluorescence intensity (a.u.). “GTTGTATGCTGATATTGTGTCATCCCTTAGTACAAACACGCGGAGTCACCTAGTGCAG” was tested, and the binding signal was 3640 fluorescence intensity (a.u.). In the case of “CTCTGTCAGGTTGTGTGACCCATCAGTTTCTCTCCGTACTCGGAGTCACCTAGTGCAG”, the binding signal is reported as 4390 fluorescence intensity (a.u.). For “AATGTTTACTAGGCTATGTTGCATGATGCAACCAAGAGATCGGAGTCACCTAGTGCAG”, the binding signal was 15100 fluorescence intensity (a.u.). With “AGCTTTTGGCTTCTCCTATAGCCTCTTTTGACATCATATCCGGAGTCACCTAGTGCAG” the binding signal was 3230 fluorescence intensity (a.u.). “AGTTGTGGGCATGAATCGGATCGTGTAGGATGGGGATAGGCGGAGTCACCTAGTGCAG” was tested, and the binding signal was 4540 fluorescence intensity (a.u.). In the case of “CTTACGTACCATACGCACATCGTGTCATGAAGTCCGTACTCGGAGTCACCTAGTGCAG”, the binding signal is reported as 3210 fluorescence intensity (a.u.). “TTTTCTTCTATGCGTTGTGACCTGTCCATCTATGTACTGTCGGAGTCACCTAGTGCAG” was tested, and the binding signal was 5270 fluorescence intensity (a.u.). With “GGCGGCTGCGTCAAGCTCAACCACAGCCACGACATCGCCACGGAGTCACCTAGTGCAG” the binding signal was 5230 fluorescence intensity (a.u.). With “TGTTTTCTCTGTGATCGTGGTGTCAGCTTTGCTTGAATGTCGGAGTCACCTAGTGCAG” the binding signal was 3900 fluorescence intensity (a.u.). For “TTCGCTCCGACGAAACGCGCTGACGCTGACGGGGACAAGGCGGAGTCACCTAGTGCAG”, the binding signal was 8720 fluorescence intensity (a.u.). With “TGAAAATTGCTCCTTAATTGTTGTCACTTGTCAGTGTCACCGGAGTCACCTAGTGCAG” the binding signal was 4330 fluorescence intensity (a.u.). In the case of “GCAGCGAGATCGAGATACCGAGAGACCACCTCACCTGCTTCGGAGTCACCTAGTGCAG”, the binding signal is reported as 3460 fluorescence intensity (a.u.). In the case of “CTTGAGATTGTAAACAGATGGCCATTGTCTGTTGTGTCAGCGGAGTCACCTAGTGCAG”, the binding signal is reported as 3970 fluorescence intensity (a.u.). With “ATAATACATTAACATGCAGCATATCCTATAGGGGTTCTATCGGAGTCACCTAGTGCAG” the binding signal was 19300 fluorescence intensity (a.u.). With “GAGAGTCGCCTTGTCAACATATGGCAGATGCAGCTGGTGCCGGAGTCACCTAGTGCAG” the binding signal was 61100 fluorescence intensity (a.u.). With “GCGTCCTTCCAGTCGCCGGCTGGCATCACCGGCTTGTGCCCGGAGTCACCTAGTGCAG” the binding signal was 4010 fluorescence intensity (a.u.). In the case of “TTGTTCCTTGCTAATATATTGACGTGTAATTCTTTTATGCCGGAGTCACCTAGTGCAG”, the binding signal is reported as 9690 fluorescence intensity (a.u.). For “TGTGTCCTACATGTGTCCTTATGTGTATATGACATGTGTGCGGAGTCACCTAGTGCAG”, the binding signal was 7040 fluorescence intensity (a.u.). “AGGACGACGTTGACGACGCACTCGATGGTGAGGCGGTCGTCGGAGTCACCTAGTGCAG” was tested, and the binding signal was 3740 fluorescence intensity (a.u.). In the case of “AGTTGCTCAATTGGTTTACCAATGACATAGTGTGTCACGCCGGAGTCACCTAGTGCAG”, the binding signal is reported as 5830 fluorescence intensity (a.u.). “TTCGTTACGAAATATAGAAGCTGAATTTGAACTTACATATCGGAGTCACCTAGTGCAG” was tested, and the binding signal was 16400 fluorescence intensity (a.u.). With “TAAAGGCCATTATAACGTGTATTGGAACAGTTATAACTGGCGGAGTCACCTAGTGCAG” the binding signal was 3640 fluorescence intensity (a.u.). In the case of “TAAGGGAGGCAGAGGGAGGAGGAAGAAGGGTCAGAGGGAGCGGAGTCACCTAGTGCAG”, the binding signal is reported as 5140 fluorescence intensity (a.u.). In the case of “GTCAAAACCGCCACGTAGACGCCACGTCATCGAAACCGCCCGGAGTCACCTAGTGCAG”, the binding signal is reported as 40400 fluorescence intensity (a.u.). With “ATTGATCCTATCTTATGATGCTGATGCGTTGTGTAGGGGTCGGAGTCACCTAGTGCAG” the binding signal was 3920 fluorescence intensity (a.u.). For “CATTGTTTATGTCAGTGCTGAGTGCTGACTGCTGAGGTATCGGAGTCACCTAGTGCAG”, the binding signal was 4140 fluorescence intensity (a.u.). “CTCTCTCCCCTCGCCTCGCCGCGCCGCTGCGTCGTCGGCGCGGAGTCACCTAGTGCAG” was tested, and the binding signal was 4720 fluorescence intensity (a.u.). For “TATCAAATACTCCTATCTCTCACAACGTAGAATAAGGAAACGGAGTCACCTAGTGCAG”, the binding signal was 6580 fluorescence intensity (a.u.). With “GGCCCTTTCCACCCATAAGCTCGCGTCATTCGCTGATCGCCGGAGTCACCTAGTGCAG” the binding signal was 7040 fluorescence intensity (a.u.). For “CTCTCCTCCTCCACCTCGCTGACGCTTTGTCCCTTTATTCCGGAGTCACCTAGTGCAG”, the binding signal was 4890 fluorescence intensity (a.u.). With “ATCATACTTATACACTACACGTGTATAGGTTTCCAAACACCGGAGTCACCTAGTGCAG” the binding signal was 5670 fluorescence intensity (a.u.). “CATCTTCCCTTACAATACCTCGACAGACTAACCATCGCCACGGAGTCACCTAGTGCAG” was tested, and the binding signal was 3330 fluorescence intensity (a.u.). “TCATAATGGTCACACGATGGCTATATTTCGTCGGCTTATTCGGAGTCACCTAGTGCAG” was tested, and the binding signal was 3360 fluorescence intensity (a.u.). For “ACTGTGATCCCAGTAAAGCTAAGCCAGCTAGGCAAGTTTACGGAGTCACCTAGTGCAG”, the binding signal was 4760 fluorescence intensity (a.u.). With “GCTCGGGGACACCTGAACACATCGGCTTTTGAGCCGCTCGCGGAGTCACCTAGTGCAG” the binding signal was 3160 fluorescence intensity (a.u.). With “CCCGACAAAGAGTCTACCAAGAGAGGTGTGACATCACAGTCGGAGTCACCTAGTGCAG” the binding signal was 4880 fluorescence intensity (a.u.). In the case of “AACAAATAACCCTACAAAGTTGCACGAACAAATTCAACTCCGGAGTCACCTAGTGCAG”, the binding signal is reported as 3210 fluorescence intensity (a.u.). “ACTCCTTCTGGGCATAATTAGATGACGTTTCAGACAACCACGGAGTCACCTAGTGCAG” was tested, and the binding signal was 3950 fluorescence intensity (a.u.). “AAATAATGACGTTCTATGTGAGTGATTATGCTAATTTCATCGGAGTCACCTAGTGCAG” was tested, and the binding signal was 3780 fluorescence intensity (a.u.). With “AAAAGCTCATCTAGAAGAGATTATTGGGTTATACTAGTCTCGGAGTCACCTAGTGCAG” the binding signal was 23800 fluorescence intensity (a.u.). With “GCAGCGACTACTACTACGTCGAAATCGTAGCTAGCTAGGACGGAGTCACCTAGTGCAG” the binding signal was 3160 fluorescence intensity (a.u.). For “TGCTTGCTTGCTCACAACCACATCAGATCATTGATCAATGCGGAGTCACCTAGTGCAG”, the binding signal was 3860 fluorescence intensity (a.u.). In the case of “TAATAAGAGGCTGTAAGTCGGCTAAATGCTGAGGTGGAGGCGGAGTCACCTAGTGCAG”, the binding signal is reported as 8660 fluorescence intensity (a.u.). “TGGGTGGTGTGGCGGCGGTAGTAGCCAAGATAGGGGTCATCGGAGTCACCTAGTGCAG” was tested, and the binding signal was 3170 fluorescence intensity (a.u.). In the case of “ACCTGATGAACGCGGCGGAATAGTTAATCTACGGGACGTGCGGAGTCACCTAGTGCAG”, the binding signal is reported as 3310 fluorescence intensity (a.u.). With “TGTCCAAATGGCATGACTCACTTATATCCTAATAGGACATCGGAGTCACCTAGTGCAG” the binding signal was 7940 fluorescence intensity (a.u.). For “TCTCAGCGTGCCTGTGTTGTGTACGTGTCATGGCAACGGGCGGAGTCACCTAGTGCAG”, the binding signal was 9300 fluorescence intensity (a.u.). In the case of “ATCGACACGGCGCGACGCACACGCACGCAAACCAAATCTTCGGAGTCACCTAGTGCAG”, the binding signal is reported as 3220 fluorescence intensity (a.u.). In the case of “AGAGTTTAAGGATCTAGATGACACACCGCTACAAGTTTAACGGAGTCACCTAGTGCAG”, the binding signal is reported as 8740 fluorescence intensity (a.u.). With “GACGCCTCGCTATTCTCGTCACACATTCGTTTTCCATCCTCGGAGTCACCTAGTGCAG” the binding signal was 3670 fluorescence intensity (a.u.). “GCACCATCCGACGTGCCAAATATCTCTAGCGTGTGATAATCGGAGTCACCTAGTGCAG” was tested, and the binding signal was 4050 fluorescence intensity (a.u.). In the case of “TCGCGCGTGCCACGCACCCAGCACGTACGCGTGACGGAGACGGAGTCACCTAGTGCAG”, the binding signal is reported as 5260 fluorescence intensity (a.u.). With “CATATAGTAGCGGTGGTGTGGAGAGTGTTTGTATTTCTGTCGGAGTCACCTAGTGCAG” the binding signal was 3200 fluorescence intensity (a.u.).
